Experimental data from patent publication US20040013664A1.
Results are given in words; binding and its absence hold for the method and conditions named. For some assays here: In cells and extracts the contact can be indirect. Some binding calls cover weakened binding; strength is not graded here.

Chains of the proteins cited; added tags and fusions are not shown. Residues count along the entry.
UniProt P48023, residues 130-281: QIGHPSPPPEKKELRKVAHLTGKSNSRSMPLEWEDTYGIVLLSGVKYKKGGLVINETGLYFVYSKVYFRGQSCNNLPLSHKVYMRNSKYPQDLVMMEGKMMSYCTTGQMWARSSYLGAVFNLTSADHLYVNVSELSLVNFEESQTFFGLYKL
UniProt P25445, residues 26-169: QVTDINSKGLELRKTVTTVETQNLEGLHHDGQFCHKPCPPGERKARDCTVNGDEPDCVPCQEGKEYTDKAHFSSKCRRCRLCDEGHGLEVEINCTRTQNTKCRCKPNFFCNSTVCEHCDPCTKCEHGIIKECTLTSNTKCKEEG
UniProt O95150, residues 72-251: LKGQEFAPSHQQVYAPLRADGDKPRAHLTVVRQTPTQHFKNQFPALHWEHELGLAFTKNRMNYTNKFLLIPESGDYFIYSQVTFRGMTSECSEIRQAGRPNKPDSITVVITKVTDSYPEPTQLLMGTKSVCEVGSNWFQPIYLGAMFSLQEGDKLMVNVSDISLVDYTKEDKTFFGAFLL

Assays:
[1] = molecular target: FLAG-FasL (aa 130-281) (human) (UniProt P48023); assay: coimmunoprecipitation with protein A-Sepharose, anti-Flag western blot
[2] = molecular target: T1, Full length DR3 on cells (human) (UniProt Q93038); assay: flow cytometry on transiently transfected cells
T1 sequence (looked up): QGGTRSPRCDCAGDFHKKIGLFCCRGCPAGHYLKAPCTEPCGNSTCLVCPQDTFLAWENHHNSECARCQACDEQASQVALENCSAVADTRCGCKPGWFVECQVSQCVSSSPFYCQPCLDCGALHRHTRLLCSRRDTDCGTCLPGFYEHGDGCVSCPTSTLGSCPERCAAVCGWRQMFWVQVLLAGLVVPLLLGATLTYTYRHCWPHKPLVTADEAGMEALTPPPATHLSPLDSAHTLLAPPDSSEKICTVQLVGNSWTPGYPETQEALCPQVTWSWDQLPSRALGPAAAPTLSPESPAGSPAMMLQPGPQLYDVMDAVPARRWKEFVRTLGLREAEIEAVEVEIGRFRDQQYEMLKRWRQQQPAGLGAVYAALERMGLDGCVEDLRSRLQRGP

binding [1]	binding [2]	Substance
binds		Human Fas(M1-G169)-Fc fusion protein (from UniProt P25445 26-169)
	binds	FLAG-tagged soluble TNF-gamma-beta (aa 72-251) (from UniProt O95150 72-251) (ligand)
